Laboratory results: paper PMC8537223
No constants are given. Whether binding was seen depends on the method and setting. Some entries that bind do so weakly or less than the wild type.

The chains behind the UniProt entries cited, without tags or fusion partners.
UniProt Q39255: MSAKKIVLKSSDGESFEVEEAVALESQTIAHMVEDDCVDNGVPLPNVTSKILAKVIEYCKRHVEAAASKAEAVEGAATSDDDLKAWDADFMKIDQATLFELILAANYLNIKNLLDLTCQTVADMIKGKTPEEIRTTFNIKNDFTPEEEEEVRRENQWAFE

T1: F-BOX STRESS INDUCED 1 (FBS1), full-length, yeast two-hybrid construct (Arabidopsis thaliana) (UniProt Q8GX77)
T1 sequence: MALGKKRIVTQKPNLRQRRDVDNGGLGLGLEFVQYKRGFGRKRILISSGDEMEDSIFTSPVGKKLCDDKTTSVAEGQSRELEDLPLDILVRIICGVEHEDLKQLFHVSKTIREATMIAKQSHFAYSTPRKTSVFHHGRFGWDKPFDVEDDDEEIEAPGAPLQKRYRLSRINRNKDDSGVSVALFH

T2: F-BOX STRESS INDUCED 2 (FBS2), yeast two-hybrid construct (Arabidopsis thaliana) (UniProt O65416)
T2 sequence: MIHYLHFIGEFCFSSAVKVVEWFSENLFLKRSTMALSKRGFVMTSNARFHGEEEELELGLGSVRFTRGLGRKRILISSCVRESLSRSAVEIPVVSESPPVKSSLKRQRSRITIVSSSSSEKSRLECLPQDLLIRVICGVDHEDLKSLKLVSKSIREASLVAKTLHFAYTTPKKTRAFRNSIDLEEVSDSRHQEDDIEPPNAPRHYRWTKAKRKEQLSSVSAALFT

T3: F-BOX STRESS INDUCED 3 (FBS3), yeast two-hybrid construct (Arabidopsis thaliana) (UniProt Q9S9T6)
T3 sequence: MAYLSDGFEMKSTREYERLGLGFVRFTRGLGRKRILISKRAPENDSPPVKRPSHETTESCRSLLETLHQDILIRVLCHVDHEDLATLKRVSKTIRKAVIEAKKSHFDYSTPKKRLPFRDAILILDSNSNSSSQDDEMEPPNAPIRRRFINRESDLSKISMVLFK

T4: F-BOX STRESS INDUCED 4 (FBS4), yeast two-hybrid construct (Arabidopsis thaliana) (UniProt Q5XF11)
T4 sequence: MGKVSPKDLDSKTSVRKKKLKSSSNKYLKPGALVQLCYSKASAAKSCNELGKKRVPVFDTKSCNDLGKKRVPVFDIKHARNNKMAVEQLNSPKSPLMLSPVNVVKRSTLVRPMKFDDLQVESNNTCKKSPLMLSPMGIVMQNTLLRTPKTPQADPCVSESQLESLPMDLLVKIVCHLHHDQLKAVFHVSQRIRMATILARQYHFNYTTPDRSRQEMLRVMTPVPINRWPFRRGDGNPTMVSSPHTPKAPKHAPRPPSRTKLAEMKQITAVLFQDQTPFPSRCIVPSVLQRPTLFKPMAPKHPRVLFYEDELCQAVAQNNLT

B1: TOPLESS (TPL), yeast two-hybrid construct (protein, UniProt Q94AI7 1-1131)
chain: MSSLSRELVFLILQFLDEEKFKETVHKLEQESGFFFNMKYFEDEVHNGNWDEVEKYLSGFTKVDDNRYSMKIFFEIRKQKYLEALDKHDRPKAVDILVKDLKVFSTFNEELFKEITQLLTLENFRENEQLSKYGDTKSARAIMLVELKKLIEANPLFRDKLQFPTLRNSRLRTLINQSLNWQHQLCKNPRPNPDIKTLFVDHSCGPPNGARAPSPVNNPLLGGIPKAGGFPPLGAHGPFQPTASPVPTPLAGWMSSPSSVPHPAVSAGAIALGGPSIPAALKHPRTPPTNASLDYPSADSEHVSKRTRPMGISDEVNLGVNMLPMSFSGQAHGHSPAFKAPDDLPKTVARTLSQGSSPMSMDFHPIKQTLLLVGTNVGDIGLWEVGSRERLVQKTFKVWDLSKCSMPLQAALVKEPVVSVNRVIWSPDGSLFGVAYSRHIVQLYSYHGGEDMRQHLEIDAHVGGVNDISFSTPNKQLCVITCGDDKTIKVWDAATGVKRHTFEGHEAPVYSVCPHYKENIQFIFSTALDGKIKAWLYDNMGSRVDYDAPGRWCTTMAYSADGTRLFSCGTSKDGESFIVEWNESEGAVKRTYQGFHKRSLGVVQFDTTKNRYLAAGDDFSIKFWDMDAVQLLTAIDGDGGLQASPRIRFNKEGSLLAVSGNENVIKIMANSDGLRLLHTFENISSESSKPAINSIAAAAAAAATSAGHADRSANVVSIQGMNGDSRNMVDVKPVITEESNDKSKIWKLTEVSEPSQCRSLRLPENLRVAKISRLIFTNSGNAILALASNAIHLLWKWQRNERNATGKATASLPPQQWQPASGILMTNDVAETNPEEAVPCFALSKNDSYVMSASGGKISLFNMMTFKTMATFMPPPPAATFLAFHPQDNNIIAIGMDDSTIQIYNVRVDEVKSKLKGHSKRITGLAFSNVLNVLVSSGADAQLCVWNTDGWEKQRSKVLPLPQGRPNSAPSDTRVQFHQDQAHFLVVHETQLAIYETTKLECMKQWAVRESLAPITHATFSCDSQLVYASFMDATVCVFSSANLRLRCRVNPSAYLPASLSNSNVHPLVIAAHPQEPNMFAVGLSDGGVHIFEPLESEGKWGVAPPAENGSASGAPTAPSVGASASDQPQR

Legend:
[1] = target: T1, F-BOX STRESS INDUCED 1 (FBS1), full-length, yeast two-hybrid construct (Arabidopsis thaliana); assay: two-hybrid; GAL4 system, baits (DBD, pGBKT7-GW) in Y2H Gold mated with preys (AD, pGADT7-GW) in Y187; diploids spotted in dilutions on SD -TL, -TLH (less stringent) and -TLHA (more stringent), 2 days at 30 °C
[2] = target: T2, F-BOX STRESS INDUCED 2 (FBS2), yeast two-hybrid construct (Arabidopsis thaliana); assay: as above
[3] = target: T3, F-BOX STRESS INDUCED 3 (FBS3), yeast two-hybrid construct (Arabidopsis thaliana); assay: as above
[4] = target: T4, F-BOX STRESS INDUCED 4 (FBS4), yeast two-hybrid construct (Arabidopsis thaliana); assay: as above
[5] = target: T1, F-BOX STRESS INDUCED 1 (FBS1), full-length, yeast two-hybrid construct (Arabidopsis thaliana); assay: two-hybrid; told in the text without a figure: FBS1 with the LXLXL leucines changed to alanine against FBIP1; FBS1 against TPL, both as bait and as prey

| Molecule | binding [1] | binding [2] | binding [3] | binding [4] | binding [5] |
| --- | --- | --- | --- | --- | --- |
| Arabidopsis SKP1 (ASK1), yeast two-hybrid construct (from UniProt Q39255 1-160) | binds | binds weakly | binds | binds | – |
| B1 | – | – | – | – | no binding |
